From patent publication US20100129344A1, “MEDICAL USES AND THERAPIES BASED UPON THE ACTION OF AZUROCIDIN ON IGFBP-1” (priority 2005, published 2010)
Some results were stated once for a whole list of compounds, not compound by compound.

T1: non-phosphorylated IGFBP-1 (Homo sapiens, UniProt P08833)
T1 sequence (P08833 26-259): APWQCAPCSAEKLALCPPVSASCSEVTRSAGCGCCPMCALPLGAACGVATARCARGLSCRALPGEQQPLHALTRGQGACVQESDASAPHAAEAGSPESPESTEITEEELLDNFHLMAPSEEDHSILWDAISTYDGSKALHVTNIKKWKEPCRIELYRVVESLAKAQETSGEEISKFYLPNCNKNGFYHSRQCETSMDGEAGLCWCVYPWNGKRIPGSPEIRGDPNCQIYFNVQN

B1: MMP-26: matrix metalloproteinase, comparison protease from other studies (protein, UniProt Q9NRE1 90-261, looked up)
Matrix metalloproteinase-26: TSISPGRCKWNKHTLTYRIINYPHDMKPSAVKDSIYNAVSIWSNVTPLIFQQVQNGDADIKVSFWQWAHEDGWPFDGPGGILGHAFLPNSGNPGVVHFDKNEHWSASDTGYNLFLVATHEIGHSLGLQHSGNQSSIMYPTYWYHDPRTFQLSADDIQRIQHLYGEKCSSDIP
B2: intact pIGFBP-1: recombinant human phosphorylated IGFBP-1, intact (protein)
chain: APWQCAPCSAEKLALCPPVSASCSEVTRSAGCGCCPMCALPLGAACGVATARCARGLSCRALPGEQQPLHALTRGQGACVQESDASAPHAAEAGSPESPESTEITEEELLDNFHLMAPSEEDHSILWDAISTYDGSKALHVTNIKKWKEPCRIELYRVVESLAKAQETSGEEISKFYLPNCNKNGFYHSRQCETSMDGEAGLCWCVYPWNGKRIPGSPEIRGDPNCQIYFNVQN
B3: non-phosphorylated IGFBP-1: recombinant non-phosphorylated human IGFBP-1 (protein)
chain: APWQCAPCSAEKLALCPPVSASCSEVTRSAGCGCCPMCALPLGAACGVATARCARGLSCRALPGEQQPLHALTRGQGACVQESDASAPHAAEAGSPESPESTEITEEELLDNFHLMAPSEEDHSILWDAISTYDGSKALHVTNIKKWKEPCRIELYRVVESLAKAQETSGEEISKFYLPNCNKNGFYHSRQCETSMDGEAGLCWCVYPWNGKRIPGSPEIRGDPNCQIYFNVQN

How the values were obtained:
[1] = target: T1, non-phosphorylated IGFBP-1; conditions: other studies; cited from earlier work
[2] = tested on: urinary IGFBP-1 protease activity; assay: Time course comparing proteolysis of npIGFBP-1 and pIGFBP-1 by urine; format: biochemical, human; conditions: 0.5 μl urine, 37 C, approx 0.35 ng/lane

| Molecule | incubation time required to cleave non-phosphorylated IGFBP-1 [1] | time by which degradation is substantial [2] | time until fragments visible [2] |
| --- | --- | --- | --- |
| B1 | > 18 h |  |  |
| B2 |  | ≤ 2 h | ≤ 3 min |
| B3 |  | ≤ 2 h | ≤ 3 min |
